Data taken from patent US11124788B2, “Asx-specific protein ligase” (NANYANG TECHNOLOGICAL UNIVERSITY, priority 2014, dated 2021).
The name of at least one read-out is uncertain.

System: butelase 1
Test: Michaelis-Menten kinetics of butelase 1 as a peptide cyclase
Type: biochemical, Clitoria ternatea

## Neuromedin ∪
  kcat/Km: 664,000 M^−1 S^−1
